Measured values taken from PubChem BioAssay AID624305 (National Center for Advancing Translational Sciences (NCATS), 2012).
The shares of active, inactive and inconclusive entries below differ from those in the screen. Potencies beside an inconclusive call are fits to weak or partial responses and may not hold up. The source made the active and inactive calls. Calls come from the whole dose curve; as a rule, active = well fitted activation curve with a large enough effect; inconclusive = small, poorly fitted or top-dose-only effect; inactive = no such curve, though single readings can be large or run the other way.
Potency is the fitted concentration of half-maximal effect.

Assay: qHTS assay for re-activators of p53 using a Luc reporter: Hit Validation; note: nearly all actives have a fitted effect of over 75% in size; for activation: 0% is about no effect
Settings: p53-responsive luciferase reporter cells, luminescence, H1299 line expressing heat-sensitive Ala138Val p53; series mostly up to 46.1 µM; activation: at the top concentration
How it was run: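 H1299 (p53-null) cells stably carrying p53-A138V and a BP100-luciferase reporter, 1000 cells/well, treated 24 h at 37 deg C. Compounds at several concentrations, 1:5 dilution; nocodazole control; luminescence read after 10 min with detection reagent.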
With O=C(/C=C/Nc1ccccc1F)c1cccs1 the Potency was inconclusive: 0.82 µM [activator, partial curve, poor fit]. For C/C(=N\NC(=O)c1cccs1)C(C)(C)C, the “activation” value was inactive: -6.77%. For COc1cccc(NC(=O)c2ocnc2C)c1, the Potency was inconclusive: 46.1 µM [activator, single point]. For Cc1sc2nc(CSC(C)C(=O)Nc3ccccn3)[nH]c(=O)c2c1C (stereo not drawn), the Potency was inconclusive: 29.1 µM [activator, single point]. For C=CCNc1ncnc2c1cnn2-c1ccc(Cl)cc1, the Potency was inconclusive: 2.91 µM [activator, partial curve, poor fit]. For COc1ccccc1NC(CC(=O)c1ccccc1)C(=O)OCC(=O)c1ccc(C)cc1 (stereo not drawn), the Potency was active: 0.206 µM. In the case of CC1CCc2c(sc(NC(=O)C3=COCCO3)c2C(N)=O)C1 (stereo not drawn), the Potency is reported as inconclusive: 23.1 µM [activator, partial curve, poor fit]. In the case of Cc1ccsc1/C=C1\CCc2ccccc2C1=O, the Potency is reported as inconclusive: 5.8 µM [activator, partial curve, poor fit]. With COc1ccc(-c2cc(=O)c3ccccc3s2)cc1 the Potency was active: 4.11 µM. For c1ccc(-c2cc3cc4c(cc3cn2)OCO4)cc1, the Potency was active: 11.6 µM. In the case of CN(C(=O)NC(=O)C1=C(N2CCOCC2)/C(=C/c2ccccc2)CC1)S(C)(=O)=O, the “activation” value is reported as inactive: 32.3%. With O=C(NNC1=C(C(=O)C(F)(F)F)CCC1)c1cccc(O)c1 the “activation” value was inactive: -18.8%. With CCCCNc1ncnc2c1cnn2-c1ccccc1 the Potency was inconclusive: 3.66 µM [activator, partial curve, poor fit]. With Cc1cc(C(=O)COc2ncnc3sccc23)c(C)n1C1CC1 the Potency was inconclusive: 20.6 µM [activator, single point]. With CCN1C(=O)C(=O)N(CC(=O)c2cc(C)n(C3CC3)c2C)C1=O the Potency was inconclusive: 18.4 µM [activator, partial curve, poor fit]. For O=C(CC1NC2CCCCC2NC1=O)Nc1ccc2c(c1)OCO2 (stereo not drawn), the “activation” value was inactive: 9.38%. With O=C(CSCC(=O)Nc1cccc([N+](=O)[O-])c1)Nc1ccccc1 the “activation” value was inactive: -1.56%. For COc1ccc(C(C)(C)C)cc1NC(=O)Nc1ccc2c(c1)OCO2, the “activation” value was inactive: 22.4%. In the case of CC(=O)N1CCN(C(=O)COC(=O)COc2c(C)cc(C)cc2C)CC1, the “activation” value is reported as inactive: 16.7%. In the case of Cc1ccc2c(c1)CCCN2C(=O)Nc1ccc2c(c1)OCO2, the “activation” value is reported as inactive: 5.73%. For C=CCn1c(SC(F)F)nc2scc(-c3ccco3)c2c1=O, the Potency was inconclusive: 18.4 µM [activator, single point]. For NNc1nc(-c2ccccc2)nc2sc3c(c12)CCCC3, the Potency was inconclusive: 0.92 µM [activator, full curve, poor fit]. With O=C(/C=C/c1ccc2c(c1)OCO2)Nc1nc2ccccc2s1 the Potency was inconclusive: 2.31 µM [activator, partial curve, poor fit]. With Cc1ccsc1/C=C(\C#N)C(=O)Nc1c(C)n(C)n(-c2ccccc2)c1=O the “activation” value was inactive: -19.8%. In the case of COCCNc1nc2sc3c(c2c(=O)n1Cc1ccco1)CCCCC3, the Potency is reported as inconclusive: 3.66 µM [activator, partial curve, poor fit]. In the case of COc1ccc(N2CCN(CC(=O)Nc3ccc(C)cc3)CC2)cc1, the “activation” value is reported as inactive: -1.56%. For O=C(O)/C=C/c1nc(-c2ccccc2)n2ccccc12, the “activation” value was inactive: 9.9%. With S=C(Nc1cccc(Br)c1)c1ccccc1 the Potency was inconclusive: 46.1 µM [activator, single point]. With Cc1ccc(C(=O)OC(C)C(=O)Nc2ccc3c(c2)OCO3)c(O)c1 (stereo not drawn) the Potency was inconclusive: 36.6 µM [activator, single point]. In the case of CCN(CC)CCn1c(SCC(=O)Nc2ccc3c(c2)CCC3)nc2ccccc2c1=O, the Potency is reported as inconclusive: 23.1 µM [activator, partial curve, poor fit]. In the case of Cc1ccc(Nc2nc(N)nc(CSc3nccn3C)n2)cc1, the Potency is reported as active: 2.31 µM. In the case of CCc1nnc(NC(=O)CCC(=O)Nc2ccccc2)s1, the “activation” value is reported as inactive: 2.08%. With CS(=O)(=O)c1ccc2nc(NC(=O)CCNC(=O)c3ccccc3Cl)sc2c1 the Potency was inconclusive: 36.6 µM [activator, single point]. With O=C1CC(c2ccc3c(c2)OCCO3)Oc2ccc([N+](=O)[O-])cc21 (stereo not drawn) the Potency was active: 2.59 µM. For CC(=O)N(C)c1ccc(NC(=O)CCN2C(=O)c3ccccc3C2=O)cc1, the “activation” value was inactive: -0.521%. With O=C(Cn1cc(SCc2ccc(F)cc2)c2ccccc21)N1CCOCC1 the “activation” value was inactive: -86.5%. In the case of CCOC(=O)c1[nH]c(C)c(C(=O)NCCC2=CCCCC2)c1C, the Potency is reported as inconclusive: 29.1 µM [activator, single point]. With Nc1c(C(=O)c2ccc(Br)cc2)oc2ccccc12 the Potency was inconclusive: 29.1 µM [activator, single point].
